Reference: patent US7915284B2, “2-aryl-6-phenylimidazo[1,2-a]pyridine derivatives, preparation thereof and therapeutic use thereof” (Sanofi-Aventis, priority 2006, dated 2011)
For at least one compound, name, drawing or mass did not settle the structure.

System: human NOT receptor
Assay: Binding to the human NOT receptor by SPR (surface plasmon resonance)
Conditions: BIACORE S51, immobilized GST-NOT whole protein and NOT ligand-binding domain, classified by maximum binding level and kinetic parameters

| Structure (SMILES) | affinity |
| --- | --- |
| Cc1ccc(-c2cn3cc(-c4cccc(CO)c4)ccc3n2)cc1 [Compound 10, [3-(2-p-Tolylimidazo[1,2-a]pyridin-6-yl)phenyl]methanol] | medium affinity |
| OCc1cccc(-c2ccc3nc(-c4ccc5ccccc5c4)cn3c2)c1 [Compound 9, [3-(2-(Naphthalen-2-yl)imidazo[1,2-a]pyridin-6-yl)phenyl]methanol] | high affinity |
